Test results reported in the supplement of paper PMC9578143, “Small-Molecule Ebselen Binds to YTHDF Proteins Interfering with the Recognition of N^6-Methyladenosine-Modified RNAs” (ACS Pharmacology & Translational Science, 2022).
This is one part of the list. Baselines shift from plate to plate; read single values as rough.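 Hits were defined as a z-score below −3.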 Residues, ends and D or L forms follow the SMILES beside them. *: point of attachment. For = O=C*

Molecular target: T1, YTHDF1 YTH domain (aa 365-554) (UniProt Q9BYJ9)
T1 sequence (whole entry): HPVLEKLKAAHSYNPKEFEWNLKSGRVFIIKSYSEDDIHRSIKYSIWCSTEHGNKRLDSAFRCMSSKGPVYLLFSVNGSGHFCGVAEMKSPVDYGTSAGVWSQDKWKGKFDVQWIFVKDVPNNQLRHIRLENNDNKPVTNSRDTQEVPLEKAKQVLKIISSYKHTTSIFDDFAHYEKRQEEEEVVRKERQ
Assay: tryptophan fluorescence intensity z-score (mean); higher = higher fluorescence, less quenching (negative = binding / quenching)
Conditions: 10 µM

Tryptophan fluorescence intensity z-score, inactive:
CCOC(N)=O (plate: M 9-10) -0.275
O=C1c2cccc(O)c2C(=O)c2c(O)cccc21 (plate: M 1-2) 0.553
CCCCC(=O)N(Cc1ccc(-c2ccccc2-c2nnn[nH]2)cc1)[C@H](C(=O)O)C(C)C (plate: M 9-10) -0.0915
C[C@H]1C(=O)CC[C@@H]2[C@]1(C)CC[C@H]1[C@@]2(C)CC[C@@]2(C)[C@@H]3CC(C)(C)CC[C@]3(C)CC[C@]12C (plate: M 13-14) 0.195
OC(CCN1CCCCC1)(c1ccccc1)c1ccccc1 (plate: M 21-22) 0.317
O=C(/C=C/c1ccccc1)c1ccc(O)cc1 (plate: M 15-16) -0.465
Nc1ccc(/N=N/c2ccccc2)c(N)n1 (plate: M 3-4) -0.234
CN(C)CCOC(=O)C(c1ccccc1)C1(O)CCCC1 (centres undefined) (plate: M 1-2) 0.441
Nc1nc(/C(=C/CC(=O)O)C(=O)N[C@@H]2C(=O)N3C(C(=O)O)=CCS[C@H]23)cs1 (plate: M 9-10) -0.171
Cc1c(S(=O)(=O)O)oc2c1C(=O)C(=O)c1c-2ccc2c1CCCC2(C)C (plate: M 23-24) -0.619
NCCCS(=O)(=O)O (plate: M 21-22) 0.532
C[C@@H]1CC[C@@]2(OC1)O[C@H]1C[C@H]3[C@@H]4CC=C5C[C@@H](O)CC[C@]5(C)[C@H]4CC[C@]3(C)[C@H]1[C@@H]2C (plate: M 13-14) 1.01
Clc1ccc(C(c2ccccc2Cl)C(Cl)Cl)cc1 (centres undefined) (plate: M 1-2) 0.193
O=C1O[C@H]([C@@H](O)CO)C(O)=C1O (plate: M 7-8) 0.248
CC(=O)Nc1ccc(S(=O)(=O)c2ccc(NC(C)=O)cc2)cc1 (plate: M 11-12) -0.564
O=C(O)c1ccccc1Nc1cccc(C(F)(F)F)c1 (plate: M 7-8) -0.578
OCCc1ccccc1 (plate: M 11-12) -0.703
CCCc1nn(C)c2c(=O)[nH]c(-c3cc(S(=O)(=O)N4CCN(C)CC4)ccc3OCC)nc12 (plate: M 9-10) -0.0356
O=C1CC[C@]23/C=C/C(=O)NCCCCNCCCNC(=O)/C=C/c4ccc(c2c4)O[C@@H]3C1 (plate: M 13-14) -0.335
CC(=O)Oc1ccc(C(c2ccc(OC(C)=O)cc2)c2ccccn2)cc1 (plate: M 1-2) 0.691
CCCCS(=N)(=O)CCC(N)C(=O)O (centres undefined) (plate: M 23-24) 0.253
CC(=O)O[C@@H]1CC2C(C)(C)[C@H](O)CC[C@]2(C)C2CC[C@@]3(C)[C@H](c4ccoc4)OC(=O)C4OC43[C@@]21C (stereo partly drawn) [alpha-DIHYDROGEDUNOL] (plate: M 21-22) 0.14
CCC(C)(C)C(=O)O[C@H]1C[C@@H](C)C=C2C=C[C@H](C)[C@H](CC[C@@H]3C[C@@H](O)CC(=O)O3)[C@H]21 (plate: M 9-10) -0.436
COc1ccc(C(C)=O)c(OC)c1 (plate: M 21-22) 0.218
CC(NCCc1ccc(O)cc1)C(O)c1ccc(O)cc1 (centres undefined) (plate: M 7-8) 0.434
CCC1(C)CC(=O)NC1=O (centres undefined) (plate: M 7-8) 0.571
C=C[C@@]1(C)CC(=O)[C@@]2(O)[C@](C)(O1)[C@@H](O)[C@@H](O)C1C(C)(C)CC[C@H](O)[C@@]12C (some centres undefined) (plate: M 19-20) 0.66
Cc1cc2nc3c(=O)[nH]c(=O)nc-3n(C[C@H](O)[C@H](O)[C@H](O)CO)c2cc1C (plate: M 9-10) -0.363
CC(=O)O[C@@H]1C[C@H]2C(C)(C)C(=O)C=C[C@]2(C)[C@H]2CC[C@@]3(C)[C@H](c4ccoc4)OC(=O)[C@H]4O[C@]43[C@@]21C (plate: M 13-14) 0.142
CSCC[C@H](NC=O)C(=O)N[C@@H](Cc1ccccc1)C(=O)O (plate: M 23-24) (For-Met-Phe-OH) 0.698
O=C1NCC2(CCN(CCc3ccccc3)CC2)O1 (plate: M 7-8) 0.519
Clc1ccc2c(c1)CCc1cccnc1C2=C1CCNCC1 (plate: M 11-12) 0.188
COc1cc(C)c(C(=O)Oc2cc(C)c(C(=O)O)c(O)c2C)c(OC)c1C (plate: M 19-20) 0.474
CN(C)CCOC(c1ccccc1)c1ccccc1.Cn1c(=O)c2[nH]c(Cl)nc2n(C)c1=O (plate: M 1-2) 0.233
C[C@@H]1CC[C@@]23CCC4(C)[C@@](C=CC5[C@@]6(C)CC[C@H](O)C(C)(C)C6CC[C@]54C)(OC2=O)C3[C@H]1C (some centres undefined) (plate: M 17-18) 0.443
CC(=O)[C@@]1(O)CC[C@H]2[C@@H]3CCC4=CC(=O)CC[C@]4(C)[C@H]3CC[C@@]21C (plate: M 21-22) 0.226
CCN(CC)C(=O)c1ccc(O)c(OC)c1 (plate: M 13-14) 0.28
NC1(C(=O)O)CC1 (plate: M 21-22) 0.0633
C[C@H]1[C@H](C)CC[C@]2(C(=O)O)CC[C@]3(C)C(=CC[C@@H]4[C@@]5(C)CC[C@H](O)C(C)(C)[C@@H]5CC[C@]43C)[C@H]12 (plate: M 21-22) 0.477
CCCCCCCCCCCCCCCC(=O)OC[C@H](O)[C@H]1OC(=O)C(O)=C1O (plate: M 13-14) 0.322
CC1CC2C3CCC4=CC(=O)C=CC4(C)C3(F)C(O)CC2(C)C1C(=O)CO (centres undefined) (plate: M 11-12) -0.33
CC=CC(=O)N(CC)c1ccccc1C (plate: M 9-10) 0.0282
CNCCc1ccccn1 (plate: M 5-6) -0.19
NCCCCCC(=O)O (plate: M 1-2) -0.168

Sorted by length of the SMILES (ascending): some entries from above
Tryptophan fluorescence intensity z-score, inactive:
O=C1c2cccc(O)c2C(=O)c2c(O)cccc21 (plate: M 1-2) 0.553
O=C(O)c1ccccc1Nc1cccc(C(F)(F)F)c1 (plate: M 7-8) -0.578
CCCCCCCCCCCCCCCC(=O)OC[C@H](O)[C@H]1OC(=O)C(O)=C1O (plate: M 13-14) 0.322
